NP40-soluble protein abundance data for one molecule are collected here from the supplement of paper PMC6411743.

This experiment concerns the target UniProt P07900 and related entries. Nature of the experiment: NP40-soluble protein abundance relative to vehicle (solubility fold change) (ratio); higher = more soluble protein in presence of GTP. How it is done:
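Solubility proteome profiling in Jurkat crude lysate. Lysate was treated with Mg-GTP (0.1-10 mM) for 10 min at room temperature and 3 min at 37 °C, then solubilised with 0.8% NP40 and benzonase, followed by ultracentrifugation. Proteins were quantified by TMT10 LC-MS/MS; the value is the NP40-soluble abundance relative to the NP40-processed vehicle, from 3 independent experiments.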

SMILES strings stand for the structures. ± gives the standard deviation of the averaged measurements. Some of the results follow.

For `Nc1nc2c(ncn2[C@@H]2O[C@H](COP(=O)(O)OP(=O)(O)OP(=O)(O)O)[C@@H](O)[C@H]2O)c(=O)[nH]1` [guanosine triphosphate], the NP40-soluble protein abundance is, setting by setting: (concentration: 0.1mM) 0.96 ± 0.049; (concentration: 0.5mM) 0.993 ± 0.054; (concentration: 1mM) 0.93 ± 0.047; (concentration: 2mM) 0.913 ± 0.042; (concentration: 4mM) 0.912 ± 0.045; (concentration: 6mM) 0.91 ± 0.046. Moreover, the NP40-soluble protein abundance turned out to be 0.889 ± 0.055 (concentration: 8mM) and 0.879 ± 0.042 (concentration: 10mM).
